Data source: PubChem BioAssay AID1259405 (NCATS, 2018)
The whole screen tested about 50,000 reagents; below is an unselected part. About 4,000 of them (8%) count as active. 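Mouse siRNA library applied to hamster cells; one well for each siRNA.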 Unmarked entries are inactive. Reagents against one gene are numbered here.

Test: 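Silenced genes that increase secreted GFP made by CHO cells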 (primary screen)
Cells: Chinese hamster CHO-K1 ovary cells with stable secreted eGFP expression
Reagent: single siRNA against mouse genes, 0.8 pmol siRNA per well (2 µl of 400 nM stock)
Timing: 3 days
Measured: 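Per-well intracellular GFP measured by laser scanning cytometry, plus viability from ATP luminescence, each relative to plate median of non-targeting control wells, in %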
Reading the numbers: GFP, % of control: higher = more GFP per well, higher productivity; viability (ATP), % of control: higher = more viable cells (more ATP)
Call rule: 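a knock-down is called active if GFP reaches 120% or more of non-targeting control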

Actrt3 #1 — GFP, % of control = 95.7; viability (ATP), % of control = 93.9
Actrt3 #2 — GFP, % of control = 96.3; viability (ATP), % of control = 106
Mecp2 #1 — GFP, % of control = 72.5; viability (ATP), % of control = 79.7
Mecp2 #2 — GFP, % of control = 50.6; viability (ATP), % of control = 40.3
Mecp2 #3 — GFP, % of control = 51.2; viability (ATP), % of control = 72.9
C8b #1 — GFP, % of control = 46.8; viability (ATP), % of control = 42.4
C8b #2 — GFP, % of control = 43.9; viability (ATP), % of control = 61.6
C8b #3 — GFP, % of control = 72.1; viability (ATP), % of control = 59.7
Arhgap26 #1 — GFP, % of control = 112; viability (ATP), % of control = 109
Arhgap26 #2 — GFP, % of control = 62.3; viability (ATP), % of control = 110
Arhgap26 #3 — GFP, % of control = 72.5; viability (ATP), % of control = 68.9
Dkk1 #1 — GFP, % of control = 84.6; viability (ATP), % of control = 101
Dkk1 #2 — GFP, % of control = 99.2; viability (ATP), % of control = 103
Dkk1 #3 — GFP, % of control = 134 (active); viability (ATP), % of control = 78.9
Or1p1c #1 — GFP, % of control = 54.6; viability (ATP), % of control = 36.1
Or1p1c #2 — GFP, % of control = 36.5; viability (ATP), % of control = 53.8
Or1p1c #3 — GFP, % of control = 50.8; viability (ATP), % of control = 113
Slc25a12 #1 — GFP, % of control = 106; viability (ATP), % of control = 112
Slc25a12 #2 — GFP, % of control = 38.4; viability (ATP), % of control = 23.5
Slc25a12 #3 — GFP, % of control = 64.8; viability (ATP), % of control = 73.1
Mrpl33 #1 — GFP, % of control = 67; viability (ATP), % of control = 64.3
Mrpl33 #2 — GFP, % of control = 88.3; viability (ATP), % of control = 85
Mrpl33 #3 — GFP, % of control = 70.9; viability (ATP), % of control = 60.8
Tro #1 — GFP, % of control = 66.2; viability (ATP), % of control = 32.7
Tro #2 — GFP, % of control = 80.5; viability (ATP), % of control = 26.7
Tro #3 — GFP, % of control = 127 (active); viability (ATP), % of control = 92.6
Arih2 #1 — GFP, % of control = 82.4; viability (ATP), % of control = 78.4
Arih2 #2 — GFP, % of control = 113; viability (ATP), % of control = 95.2
Arih2 #3 — GFP, % of control = 70.7; viability (ATP), % of control = 105
Rai2 #1 — GFP, % of control = 60.8; viability (ATP), % of control = 54.5
Rai2 #2 — GFP, % of control = 58.3; viability (ATP), % of control = 47.5
Rai2 #3 — GFP, % of control = 51.8; viability (ATP), % of control = 57.8
Agmo #1 — GFP, % of control = 151 (active); viability (ATP), % of control = 113
Agmo #2 — GFP, % of control = 75.5; viability (ATP), % of control = 80
Agmo #3 — GFP, % of control = 70.1; viability (ATP), % of control = 92.1
Fbxw20 #1 — GFP, % of control = 118; viability (ATP), % of control = 79.2
Fbxw20 #2 — GFP, % of control = 106; viability (ATP), % of control = 74.4
Fbxw20 #3 — GFP, % of control = 120 (active); viability (ATP), % of control = 75.1
Gata6 #1 — GFP, % of control = 53; viability (ATP), % of control = 63.6
Gata6 #2 — GFP, % of control = 65.1; viability (ATP), % of control = 68.6

Quoted from above (5 entries):
Agmo #1 — GFP, % of control = 151 (active); viability (ATP), % of control = 113
Agmo #2 — GFP, % of control = 75.5; viability (ATP), % of control = 80
Agmo #3 — GFP, % of control = 70.1; viability (ATP), % of control = 92.1
Fbxw20 #1 — GFP, % of control = 118; viability (ATP), % of control = 79.2
Fbxw20 #2 — GFP, % of control = 106; viability (ATP), % of control = 74.4
